# For at least one compound, name, drawing or mass did not settle the structure.
# System: THP.1 cells
# Assay: Uptake of 3H-Compound I in intact THP.1 cells
# Assay type: cell-based, human
compound,measurement,setting,value
"[3H]c1cc(-c2nc(-c3ccc(F)cc3)c(-c3ccncc3)[nH]2)cc([3H])c1O [Compound I, 4-(Fluorophenyl)-2-(4-hydroxyphenyl-3,5-t2)-5-(4-pyridyl)imidazole]",time at which saturable binding was achieved,"2 million THP.1 cells, 50 nM radiolabeled Compound I",15 min
same,time to maximum level of uptake of the radiolabel,"intact THP.1 cells, 37° C.",3 to 5 min
